Reference: US11334695B2, “Antiperspirant and deodorant compositions comprising malodor reduction compositions” (The Procter & Gamble Company, priority 2014, dated 2022)

Experiment: Fragrance Fidelity Index (FFI), expert grader ranking of odor strength of treated fabric swatch against ethyl vanillin reference swatches
Settings: 13 μL on clean swatch, scale 0 to 3

Compound	FFI (test material Conc 10 ppm)	FFI (test material Conc 50 ppm)
CC(CCO)CCc1ccccc1 (stereo not drawn) [Material 962]	0	0.5
CCC(O)COC1CCCCC1C(C)(C)C (stereo not drawn) [Material 677]	0	1.8
C=C1CCC2OC2(C)CCC2C1CC2(C)C (stereo not drawn) [Material 1148]		0.5
CCCCCCCCCCCCO [Material 174]		0.5
CC1(C)C2CCC3(C2)C1C(=O)CCC3(C)C (stereo not drawn) [Material 1149]	0	0.8
O=C1CCC2CCCCC2O1 (stereo not drawn) [3,4,4a,5,6,7,8,8a-octahydrochromen-2-one]	0	0
CCCCCCCCCCCC(=O)OCC [Material 391]		0.3
CC(=O)OC1CC2CC1C1CC=CC21 (stereo not drawn) [Material 281]	0	0.5
CC(C)(C)C1CCCCC1 [4-tert-butyl cyclohexane]	0	0.3
C=CC(C)=CCC=C(C)C [Material 524]		0
CCOC(=O)OC1C(C)CCC(C)C1C (stereo not drawn) [Material 1005]		0.5
CC(=O)OCCCCCCC(C)C [Material 204]	0	0
COC(=O)OC1CC/C=C\CCC1 (stereo not drawn) [Material 1139]	0	1.0
CCCCCCCCCCCO [Undecanol]		0.8
CC1(C)CCc2ccc(CCC=O)cc21 [Material 261]	0	1.3
